Literature values in US20170027908A1, “Pharmaceutical Composition” (CIPLA Limited, priority 2011, published 2017).

Settings: in vivo

For `COc1ccc(CC(C)NCC(O)c2ccc(O)c(NC=O)c2)cc1` (racemic) [Formoterol, (±)-2-hydroxy-5-[(1RS)-1-hydroxy-2-[[(1RS)-2-(4-methoxyphenyl)-1methylethyl]amino]ethyl] formanilide], the duration of action is listed as “more than 12 hours” and the onset of action is listed as 1 to 3 min.
